We go through 1 molecule from PMC8615769.

Chains of the proteins cited; added tags and fusions are not shown.
UniProt P17182: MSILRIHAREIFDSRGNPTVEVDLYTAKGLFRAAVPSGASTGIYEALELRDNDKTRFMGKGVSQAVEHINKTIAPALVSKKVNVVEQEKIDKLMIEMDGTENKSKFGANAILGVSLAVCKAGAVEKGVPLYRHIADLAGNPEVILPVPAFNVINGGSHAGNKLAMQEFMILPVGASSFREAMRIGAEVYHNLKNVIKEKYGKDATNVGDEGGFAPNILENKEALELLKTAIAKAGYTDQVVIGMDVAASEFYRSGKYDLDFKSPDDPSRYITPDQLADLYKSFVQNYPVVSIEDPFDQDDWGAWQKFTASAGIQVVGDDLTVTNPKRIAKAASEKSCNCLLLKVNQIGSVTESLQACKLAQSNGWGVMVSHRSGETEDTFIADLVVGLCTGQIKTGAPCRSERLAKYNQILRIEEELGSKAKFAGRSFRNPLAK

This experiment addresses enolase 1 (Eno1) (mouse (endogenous in EO771)) (UniProt P17182). Briefly: co-IP; antibody for Hsp90ab1 or Eno1 (2 µg) on protein A sepharose, incubated overnight with 600 µL EO771 cell lysate, washed three times with PBS, Western blot; normal IgG as negative control. On the technique in general: Immunoblotting shows a protein as a band on a membrane.

These are yes or no findings as the source states them, for the method shown. Binding seen in cells or lysates may run through a third protein. Some results given as binding are weak or reduced against the parent protein; the word gives no strength.

B1: CD44, a cell-adhesion receptor (receptor, UniProt P15379 23-778)
chain: QIDLNVTCRYAGVFHVEKNGRYSISRTEAADLCQAFNSTLPTMDQMKLALSKGFETCRYGFIEGNVVIPRIHPNAICAANHTGVYILVTSNTSHYDTYCFNASAPPEEDCTSVTDLPNSFDGPVTITIVNRDGTRYSKKGEYRTHQEDIDASNIIDDDVSSGSTIEKSTPEGYILHTYLPTEQPTGDQDDSFFIRSTLATIASTVHSKSHAAAQKQNNWIWSWFGNSQSTTQTQEPTTSATTALMTTPETPPKRQEAQNWFSWLFQPSESKSHLHTTTKMPGTESNTNPTGWEPNEENEDETDTYPSFSGSGIDDDEDFISSTIATTPRVSARTEDNQDWTQWKPNHSNPEVLLQTTTRMADIDRISTSAHGENWTPEPQPPFNNHEYQDEEETPHATSTTPNSTAEAAATQQETWFQNGWQGKNPPTPSEDSHVTEGTTASAHNNHPSQRITTQSQEDVSWTDFFDPISHPMGQGHQTESKDTDSSHSTTLQPTAAPNTHLVEDLNRTGPLSVTTPQSHSQNFSTLHGEPEEDENYPTTSILPSSTKSSAKDARRGGSLPTDTTTSVEGYTFQYPDTMENGTLFPVTPAKTEVFGETEVTLATDSNVNVDGSLPGDRDSSKDSRGSSRTVTHGSELAGHSSANQDSGVTTTSGPMRRPQIPEWLIILASLLALALILAVCIAVNSRRRCGQKKKLVINGGNGTVEDRKPSELNGEASKSQEMVHLVNKEPSETPDQCMTADETRNLQSVDMKIGV
As to B1, the binding entry is listed as “binds”.
